{
  "source": "the supplement of paper PMC3334620",
  "note": "In all, about 33,000 sequences were measured (“E-score (-0.5 to 0.5)”: median about -0.015, highest 2% from about 0.3 on). This is one part of the list.",
  "data": [
    {"target": "T1, Abf1 (UniProt P14164)", "T1 sequence": "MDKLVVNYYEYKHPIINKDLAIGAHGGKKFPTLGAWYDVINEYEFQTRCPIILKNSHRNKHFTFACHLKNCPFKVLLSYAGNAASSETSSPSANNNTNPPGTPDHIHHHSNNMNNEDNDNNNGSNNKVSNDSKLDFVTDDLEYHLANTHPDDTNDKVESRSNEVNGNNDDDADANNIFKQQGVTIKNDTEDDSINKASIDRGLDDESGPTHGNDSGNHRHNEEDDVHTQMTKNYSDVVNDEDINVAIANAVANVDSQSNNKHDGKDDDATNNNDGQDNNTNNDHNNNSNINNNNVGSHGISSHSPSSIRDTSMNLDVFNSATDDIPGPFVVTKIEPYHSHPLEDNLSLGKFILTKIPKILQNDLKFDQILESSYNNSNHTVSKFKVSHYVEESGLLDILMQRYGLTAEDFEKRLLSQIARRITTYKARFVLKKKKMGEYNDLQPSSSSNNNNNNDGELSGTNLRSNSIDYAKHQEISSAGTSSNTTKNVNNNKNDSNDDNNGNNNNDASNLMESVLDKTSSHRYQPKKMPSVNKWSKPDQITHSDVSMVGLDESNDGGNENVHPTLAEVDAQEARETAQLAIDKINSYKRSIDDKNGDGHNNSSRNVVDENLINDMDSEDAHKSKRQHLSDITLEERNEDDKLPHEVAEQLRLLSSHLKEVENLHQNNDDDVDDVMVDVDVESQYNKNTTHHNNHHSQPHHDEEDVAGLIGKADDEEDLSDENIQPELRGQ", "assay": "PBM E-score (8-mer binding enrichment) (E-score (-0.5 to 0.5)); higher = stronger / more preferred TF binding", "conditions": "protein concentration: 200 nM; construct: GST-full length", "in_short": "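Universal all-10-mer Agilent arrays, fresh or stripped once, were converted to double-stranded form by primer extension. GST-tagged yeast transcription factors from PURExpress in vitro transcription/translation, full-length or DNA-binding domain only, were applied at about 100-200 nM and detected with fluorescent anti-GST. After masliner normalisation, the Universal PBM Analysis Suite scored each ungapped eight-base word together with its reverse complement by E-score.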", "values": [
      {"sequence": "GCCTGCCA", "PBM E-score": -0.381},
      {"sequence": "CATGTACC", "PBM E-score": -0.013},
      {"sequence": "AGGCTAAT", "PBM E-score": 0.012},
      {"sequence": "CACGCTTA", "PBM E-score": 0.122},
      {"sequence": "AATGCTGT", "PBM E-score": 0.139},
      {"sequence": "ACTGTAAA", "PBM E-score": 0.107},
      {"sequence": "AAACCAAA", "PBM E-score": 0.0965},
      {"sequence": "CATAAGAC", "PBM E-score": -0.116},
      {"sequence": "ATGGGTAG", "PBM E-score": -0.0145},
      {"sequence": "TGACCGAA", "PBM E-score": 0.0507},
      {"sequence": "GGCAGTAA", "PBM E-score": 0.0511},
      {"sequence": "GCAGCACA", "PBM E-score": 0.025},
      {"sequence": "ACCCGGAG", "PBM E-score": -0.0473},
      {"sequence": "GCCGACAC", "PBM E-score": -0.142},
      {"sequence": "GAGGATTA", "PBM E-score": -0.146},
      {"sequence": "CTTCGATA", "PBM E-score": 0.103},
      {"sequence": "GAACTTGC", "PBM E-score": -0.181},
      {"sequence": "GGTCAACC", "PBM E-score": -0.158},
      {"sequence": "CCTCAGCC", "PBM E-score": -0.0588},
      {"sequence": "AGATTACA", "PBM E-score": 0.21},
      {"sequence": "GCTAAACC", "PBM E-score": -0.00114},
      {"sequence": "AGCTTTAA", "PBM E-score": 0.118},
      {"sequence": "GAATCGTA", "PBM E-score": 0.211},
      {"sequence": "GAGAGCAA", "PBM E-score": -0.101},
      {"sequence": "GTTCGCGA", "PBM E-score": 0.218},
      {"sequence": "ACTAAGAC", "PBM E-score": 0.0657},
      {"sequence": "ACCGAGAC", "PBM E-score": -0.0366},
      {"sequence": "AGTTATAC", "PBM E-score": 0.0981},
      {"sequence": "CTGTCCCA", "PBM E-score": -0.205},
      {"sequence": "CTCGTCAA", "PBM E-score": 0.0916},
      {"sequence": "GAGCCGCC", "PBM E-score": -0.125},
      {"sequence": "GCATGTCA", "PBM E-score": 0.225},
      {"sequence": "CCCTCCGG", "PBM E-score": -0.337},
      {"sequence": "GGCCGAAC", "PBM E-score": -0.174},
      {"sequence": "GCTTCAAC", "PBM E-score": -0.128},
      {"sequence": "CGTCGAAA", "PBM E-score": 0.193},
      {"sequence": "GAGGTGAA", "PBM E-score": 0.0188},
      {"sequence": "CCAAAGAG", "PBM E-score": 0.0455},
      {"sequence": "TCGTATAA", "PBM E-score": 0.4},
      {"sequence": "AAATAACC", "PBM E-score": -0.0242},
      {"sequence": "AATTTTGG", "PBM E-score": -0.129},
      {"sequence": "ATACGCCA", "PBM E-score": 0.0294},
      {"sequence": "CACGCCCA", "PBM E-score": -0.0648},
      {"sequence": "CGGCGGGA", "PBM E-score": -0.177},
      {"sequence": "AAGGAATA", "PBM E-score": 0.0414},
      {"sequence": "AGAGGAGG", "PBM E-score": -0.199},
      {"sequence": "CAACCGTG", "PBM E-score": 0.0898},
      {"sequence": "CCCACATC", "PBM E-score": -0.153},
      {"sequence": "ACGAGTAC", "PBM E-score": 0.188},
      {"sequence": "CTAGCTTC", "PBM E-score": 0.0299},
      {"sequence": "AACATTTG", "PBM E-score": -0.0039},
      {"sequence": "ACATCTCT", "PBM E-score": 0.00147},
      {"sequence": "AAAACGCG", "PBM E-score": 0.0522},
      {"sequence": "GGCAAAAA", "PBM E-score": 0.145},
      {"sequence": "AGTCGTCA", "PBM E-score": 0.207},
      {"sequence": "CCCTACAA", "PBM E-score": -0.11},
      {"sequence": "GGAGGGTA", "PBM E-score": -0.0628},
      {"sequence": "ACCACCTC", "PBM E-score": -0.0599},
      {"sequence": "TGGCCAAA", "PBM E-score": -0.0854},
      {"sequence": "GATTCGCC", "PBM E-score": -0.0445},
      {"sequence": "CAGTTTCC", "PBM E-score": -0.0898},
      {"sequence": "GATCGTAC", "PBM E-score": 0.151},
      {"sequence": "AAGGTCCG", "PBM E-score": -0.00447},
      {"sequence": "CGCCAGTA", "PBM E-score": -0.135},
      {"sequence": "CAACCTCG", "PBM E-score": 0.0527},
      {"sequence": "CGAATACG", "PBM E-score": 0.189},
      {"sequence": "ACCGGAGC", "PBM E-score": -0.123},
      {"sequence": "CGGCATCC", "PBM E-score": -0.0216},
      {"sequence": "AAGCAGGT", "PBM E-score": -0.119},
      {"sequence": "ACGCCACA", "PBM E-score": 0.0362},
      {"sequence": "ACCTCCCT", "PBM E-score": -0.208},
      {"sequence": "CTTCCCTC", "PBM E-score": -0.197},
      {"sequence": "CTGTAAAC", "PBM E-score": -0.153},
      {"sequence": "TAGAGGGA", "PBM E-score": -0.142},
      {"sequence": "CGTATACC", "PBM E-score": 0.036},
      {"sequence": "AGTAAGTC", "PBM E-score": -0.15},
      {"sequence": "CCAATCTA", "PBM E-score": -0.114},
      {"sequence": "AATCCCGC", "PBM E-score": -0.0179},
      {"sequence": "TACCAACA", "PBM E-score": -0.0455},
      {"sequence": "TCTGTGCA", "PBM E-score": 0.131},
      {"sequence": "TGGAGAAA", "PBM E-score": -0.139},
      {"sequence": "GCCTGACA", "PBM E-score": -0.187},
      {"sequence": "CTATCTAC", "PBM E-score": 0.0715},
      {"sequence": "AGGCTCAA", "PBM E-score": -0.133},
      {"sequence": "CGCAATTC", "PBM E-score": -0.0731},
      {"sequence": "ACGCGTAA", "PBM E-score": -0.0946},
      {"sequence": "ATGAATGG", "PBM E-score": 0.0298},
      {"sequence": "CAAAGCGC", "PBM E-score": -0.107},
      {"sequence": "ACCCGGAT", "PBM E-score": -0.341},
      {"sequence": "ACACGGCG", "PBM E-score": 0.305},
      {"sequence": "CGGACCAG", "PBM E-score": -0.125},
      {"sequence": "ATCCTTAG", "PBM E-score": -0.0241},
      {"sequence": "ATCTCACG", "PBM E-score": 0.197},
      {"sequence": "GGCTATAA", "PBM E-score": -0.0591}
    ]}
  ]
}
